Measurements taken from patent publication US20090030088A1, “Therapeutic benefits of gossypol, 6-methoxy gossypol, and 6,6'-dimothxy gossypol” (Clemson University, priority 2007, published 2009).
For at least one compound, name, drawing or mass did not settle the structure. Some entries share one result that the patent states for a list of compounds.

Legend:
[1] = DPPH free radical scavenging assay
Experimental: DPPH Free Radical Scavenging Assay. Scavenging activities on DPPH free radicals by gossypol and methoxy gossypol derivatives were determined according to the method of (9) with slight modification. The reaction mixture was made by mixing 0.4 mL of sample solution in DCM and same volume of 0.25 mM DPPH in DCM, shaken vigorously, incubated for 30 min in the dark at room temperature, and measured spectrophotometrically at 517 nm. BHT, a common used antioxidant, was used as a standard for comparison. The lower absorbance of reaction mixture indicated higher free radical scavenging activity, and the reduction of DPPH free radicals was calculated as following: […]

[2] = Reducing power assay (ferric to ferrous); conditions: tested range 1-125 ppm, compared with the methoxy derivatives
[3] = Solubility restraint in the reducing power test system

SMILES | concentration to scavenge 50% free radicals (IC50 value) ([1]; DPPH in DCM, 30 min) [ppm] | free radicals scavenged ([1]; compound at 20 ppm) [%] | reducing power [2] | highest concentration that can be tested because of the solubility restraint [3] [ppm]
Cc1cc2c(C(C)C)c(O)c(O)c(C=O)c2c(O)c1-c1c(C)cc2c(C(C)C)c(O)c(O)c(C=O)c2c1O [gossypol] | 8.2 | 85 | remarkably greater reducing power and higher efficiency than methoxy gossypol and dimethoxy gossypol | ≤ 125
COc1c(O)c(C=O)c2c(O)c(-c3c(C)cc4c(C(C)C)c(O)c(O)c(C=O)c4c3O)c(C)cc2c1C(C)C [6-methoxy gossypol] | – | – | – | ≤ 125
